The source of these data is patent publication US20150231240A1, “ANTI-C16ORF54 ANTIBODIES AND METHODS OF USE THEREOF” (priority 2012, published 2015).

No constants are given. Whether binding was seen depends on the method and setting. Some entries that bind do so weakly or less than the wild type.

Sequences and labels used below:
B1: R29-7-2A (antibody, V domains shown)
VH: EVQLVESGGGLIQPKGSLKLSCVASGFSFNTHAMNWVRQAPGKGLEWVARIRSKSNNYARYYADSVKDRFTISRDDSQSILYLQMNNLKTEDTAMYYCVKQGDGGFAYWGQGTLVTVSA
VL: DIVMSQSPSSLAVSVGEKVTMSCKSSQSLLYSSNQKNYLAWYQQRPGQSPKLLIYWASARESGVPDRFTGSGSGTDFTLTISSVKAEDLAVYYCQQYYSYPPTFGAGTKVELK
notes: Murine monoclonal IgG2b from a hybridoma
B2: R29-67-7A (antibody, V domains shown)
VH: DVQLQESGPGLVKPSQSLSLTCTVTGYSITSDYAWNWIRQFPGNKLEWMGYINYSGRTRYNPSLNSRISLTRDTSTNQFFLQLNSVTTEDTATYYCARENYDYEFYAMDYWGQGTSVTVSS
VL: DIVMSQSPSSLAVSVGEKVTMSCKSSQNLLYSSNQKNYLAWYQQKPGQSPKLLIYWASTRESGVPDRFTGSGSGTDFTLTISSVKAEDLAVYYCQQYYIYRTFGGGTKLEIK
notes: Murine monoclonal IgG2a from a hybridoma
B3: R29-7-1C (antibody, V domains shown)
VH: DVQLQESGPGLVKPSQSLSLTCTVTGYSITSDYAWNWIRQFPGNKLEWMGYISYSGSIRYNPSLKSRISITRDTSKNQFFLQLNSVTTEDTATYYCAREKYDNYYYAMDYWGQGTSVTVSS
VL: DIVMSQSPSSLAVSVGEKVTLSCKSSQNLLYSTNQKNYLAWYQQKPGQSPKLLIYWASTRESGVPDRFTGSGSGTDFTLTISSVKAEDLAVYYCQQYYSYRTFGGGTKLEIK
notes: as for B2

For the experiment, the target named is T1, N-terminal 32 amino acids of huC16orf54 coupled to biotin (human).
T1 sequence (peptide, biotin at the C-terminus): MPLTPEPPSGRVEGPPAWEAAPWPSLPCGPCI
The experiment in a line: binding experiments of Example 5 (biolayer interferometry). In general terms: Biolayer interferometry detects binding as a change in optical thickness at a sensor tip.
In the case of B1, the binding entry was “binds”.
For B2, the binding entry is on record as “binds”.
In the case of B3, the binding result is “binds”.
